Test results: patent US5932483A, “Synthetic peptide and its uses” (Northwestern University, priority 1996, dated 1999)
Several values for one entry are separate records, joined by “and”; a condition that tells them apart may be missing. Equal entries are not always repeated. At least one peptide structure holds a part that was inferred or is arguable (an end, a ring closure or a residue). No end group written: not given here.

System: sensitized sheep erythrocytes (SRBCs), human serum as complement
Assay: Sheep red blood cell lysis assay (SRBC assay)
Format: cell-based

For FNKEQQNAFYEILHC [CBP3], the “% Inhibition SRBC Assay +/- S.D.” value (125 μM) was 0%, the “% Inhibition SRBC Assay +/- S.D.” value (250 μM) was 21.6 +/- 21.1% and the “% Inhibition SRBC Assay +/- S.D.” value (325 μM) was 33.3 +/- 4.2%. The “% Inhibition SRBC Assay +/- S.D.” value (500 μM) was 38.2 +/- 25.9%, the “% Inhibition SRBC Assay +/- S.D.” value (675 μM) was 57.7 +/- 3.5% and the “% Inhibition SRBC Assay +/- S.D.” value (800 μM) was 64.3 +/- 1.5%. For the same sequence, the “% Inhibition SRBC Assay +/- S.D.” value (1000 μM) was 83.6% and 81.8 +/- 3.0% and the “effectiveness on a molar basis relative to CBP2” value (SRBC lysis assay) was “about half as effective”.
